According to patent publication US20210002611A1, “IMPROVED ALPHA-BETA T PROCESSED CELL PRODUCTION METHOD” (OSAKA UNIVERSITY, priority 2018, published 2021):

Test system: sugar chains of αβ T processed cells
Test: LC-MS mass spectrometry analysis of sugar chains on cell surface
Assay type: cell-based, human
Conditions: cells cultured with 2 mM 2DG
Source text: From the αβ T processed cells, sugar chains were purified and labeled by using BlotGlyco (Sumitomo Bakelite Co., Ltd.), and then the purified and labeled sugar chains were subjected to LC-MS mass spectrometry analysis (FIG. 5A).

OCC1O[C@H](O)C[C@@H](O)[C@@H]1O (mixture of isomers) [2DG, 2-deoxy-d-glucose]
Amount of sugar chains per cell, peak 6 (Hex)2(HexNAc)2(Deoxyhexose)1(Sulph)1 + (Man)3(GlcNAc)2: 606 fmol
